# Source: PubChem BioAssay AID588499 (NMMLSC, 2011)
# Hit rate of the full screen: of about 360,000 compounds, about 610 (0.17%) were called active. Inconclusive results, whose numbers are uncertain, are shown with a selection of clear calls. Rule as the data show it: active = inhibition above about 30%; inconclusive = no clear call, values can overlap the other calls; inactive = below that.
# Tested on: Botulinum neurotoxin type A light chain protease (Clostridium botulinum A str. ATCC 3502)
# Test: blockers of BoNT/A LC substrate cleavage – biochemical, flow cytometry, MLPCN library, primary screen (AID 588499); also: plate controls were buffer without enzyme for full effect and enzyme alone for no effect
# Conditions: multiplex microsphere protease substrate cleavage, at 10 µM, active compounds read high
row,SMILES,inhibition
1,COc1cc(Cl)c(C)cc1NC(=O)COC(=O)c1ccc(CN2CCCC2=O)cc1,inconclusive: -1%
2,CCC(/C=C1\Sc2ccc(OC)cc2N1CC)=C\c1sc2ccc(OC)cc2[n+]1CCCS(=O)(=O)[O-],active: 100%
3,O=C(c1ccc2c(c1)OCO2)N1CCC(Cc2ccccc2)CC1,inconclusive: 12.3%
4,CSc1nn2c(C(F)(F)F)cc(C(F)(F)F)nc2c1C(=O)O,inconclusive: 2.5%
5,O=C(CN1CCCC1)Nc1ccc(OCc2ccccc2)cc1,inactive: -0.4%
6,Cc1ccc(CNC(=O)C(C)OC(=O)c2ccco2)cc1 (stereo unspecified),inconclusive: 1.8%
7,O=C(Nc1ccc2c(c1)OCCO2)c1cccnc1Oc1ccc(Cl)cc1,inconclusive: 0.9%
8,O=C(CSc1nnc2scc(-c3ccccc3)n12)Nc1ccc2c(c1)OCCO2,inconclusive: -3.1%
9,COC(=O)c1ccccc1NC(=O)C1CCCN(S(=O)(=O)c2ccccc2)C1 (stereo unspecified),inconclusive: 6.8%
10,COCCCNC(=O)c1c(NC(=O)c2ccccc2Cl)n(Cc2ccccc2)c2nc3ccccc3nc12,inconclusive: 27.2%
11,CCCNC(=O)Cn1c(=O)/c(=C/c2ccc(-c3ccc([N+](=O)[O-])cc3)o2)s/c1=C\C(=O)C(C)(C)C,active: 32.1%
12,Cc1ccc2[nH]c(CNC(=O)C3CCCCC3)cc2c1,active: 92.6%
13,O=C(CCC(=O)NC1CCN(Cc2ccccc2)CC1)NCc1ccco1,inconclusive: -2.5%
14,Cn1c(SCc2nc3ccccc3[nH]2)nnc1-c1cccs1,inconclusive: -1.3%
15,CCCn1c(=O)c(Br)cn(-c2ccccc2C)c1=O,inconclusive: -5.4%
16,CCCS(=O)(=O)NC(=O)C1(C)CCN(C(=O)C2(c3ccc(Cl)cc3)CCCC2)C1 (stereo unspecified),inactive: 0.2%
17,COc1ccc(OC)c(NC(=O)CCN2CCN(CCO)CC2)c1,inactive: -0.8%
18,CCN(CCCNC(=O)Cn1ncc2c([nH]c3ccc(C)cc32)c1=O)c1ccccc1,inactive: 0.4%
19,CCN(CC)C(=O)C1CCN(S(=O)(=O)c2cccc3nonc23)CC1,inconclusive: -0.7%

row,SMILES,inhibition
1,COc1cccc(CN2CCN(Cc3cc(OC)c(OC)cc3[N+](=O)[O-])CC2)c1,inconclusive: 21.4%
2,CCN1C(=O)/C(=C2\SC(=S)N(c3c(C)n(C)n(-c4ccccc4)c3=O)C2=O)c2ccccc21,inconclusive: 10.3%
3,Cc1cc(-c2ccccc2)n2ncnc2n1,inconclusive: 0.8%
4,CCOC(=O)C1CCN(S(=O)(=O)c2ccc3[nH]c(=O)ccc3c2)CC1,inactive: -0.3%
5,COC(=O)C1=C(C)NC2=C(C(=O)CCC2)C1c1cccc(C)n1 (stereo unspecified),inactive: -2.4%
6,Cn1c(=O)c(/C=C/c2ccc(F)cc2)nc2ccccc21,active: 32.6%
7,COc1c(F)c(F)c(C(=O)Nc2ccc(N3CCN(C(C)=O)CC3)c(Cl)c2)c(F)c1F,inconclusive: -5.7%
8,CCn1c(SCc2nc3ccccc3[nH]2)nnc1-c1cccs1,inconclusive: 5.5%
9,CC(Oc1ccccc1F)C(=O)NNC(=O)c1cc2ccccc2o1 (stereo unspecified),inactive: -0.8%
10,CC1(C)C2CC=C(CN3CCC(O)CC3)C1C2 (stereo unspecified),inconclusive: 1.2%
11,CC1CCCCC12NC(=O)N(CC(=O)N1CCN(Cc3ccc(C#N)cc3)CC1)C2=O (stereo unspecified),inactive: -0.5%
12,Cc1cc(Br)cn2c(Cc3cccc(F)c3)c(-c3ccccc3)nc12,inactive: 1.2%
13,Cc1cc(C)c2nc(-c3ccccn3)cc(C(=O)Nc3ccc(S(=O)(=O)Nc4cc(C)on4)cc3)c2c1,inconclusive: 1.1%
14,CN(CCc1ccccn1)C(=O)CN(C)S(=O)(=O)c1ccc2c(c1)c(=O)n(C)c(=O)n2C,inconclusive: 0.2%
15,CC(=O)Nc1cccc(OCCCNS(=O)(=O)c2ccc(F)cc2)c1,inconclusive: 2.3%
16,Cc1ccc(-c2cc(C(=O)Nc3ccncc3)c3ccccc3n2)cc1,inconclusive: 0.1%
17,Cc1ccccc1C(=O)N(C)[C@H]1C[C@H]2c3[nH]c4ccccc4c3CCN2C(=O)[C@H]1[C@H](C)O,inactive: 0.6%
18,O=C(Nc1cccc(-c2cn3cccnc3n2)c1)c1ccc2c(c1)OCO2,inconclusive: 15.4%
19,CC(=NC1CCN(Cc2ccccc2)CC1)c1c(O)n(C)c(=O)n(C)c1=O,inconclusive: -1%

# Of the compounds above, 2 contain bromine.
row,SMILES,inhibition
15,CCCn1c(=O)c(Br)cn(-c2ccccc2C)c1=O,inconclusive: -5.4%
12,Cc1cc(Br)cn2c(Cc3cccc(F)c3)c(-c3ccccc3)nc12,inactive: 1.2%

# Exported bar-delimited: 2 of the compounds above.
row | SMILES | inhibition
12 | Cc1ccc2[nH]c(CNC(=O)C3CCCCC3)cc2c1 | active: 92.6%
13 | O=C(CCC(=O)NC1CCN(Cc2ccccc2)CC1)NCc1ccco1 | inconclusive: -2.5%

# Remaining list, next part.

row,SMILES,inhibition
1,O=C(Cc1ccccc1[N+](=O)[O-])NNC(=O)c1ccncc1,inconclusive: -2.4%
2,Cc1nc(-c2nc(-c3c(C(=O)NNC(=O)c4ccc(Cl)cc4)noc3C)cs2)cs1,inconclusive: -25.6%
3,Cc1noc2c1C(c1ccc(N(C)C)cc1)C1=C(CC(C)(C)CC1=O)N2 (stereo unspecified),inactive: 0.2%
4,O=C(Nc1ccncc1)c1ccc(N2CCCC2=O)cc1,inconclusive: -265%
5,O=C(Nc1nc2ccccc2c(=O)s1)c1ccco1,inconclusive: -24.5%
6,Cc1ccc2nc(NC(=O)CCNS(=O)(=O)c3cccs3)sc2c1,inactive: -0.5%
7,Cc1ccc(C(=O)O/N=C2\CCSc3ccc(C)cc32)cc1,inconclusive: 5.8%
8,CCOC(=O)CSc1cc(C)nc(NC(C)=O)n1,inconclusive: 1.6%
9,Cc1cccc2c1OCC/C2=N\NC(=O)COc1ccccc1,inactive: -1.7%
10,O=C(O)CSc1nnc(-c2ccncc2)n1C1CCCCC1,inconclusive: 1.7%
11,Cc1ccc(/C=C2\SC(=S)N(CC3CCCO3)C2=O)o1 (stereo unspecified),inconclusive: 29.9%
12,Cc1cc(C(=O)CSc2nnc(N)s2)c(C)n1CCc1ccc(Cl)cc1,inconclusive: 0.4%
13,COc1ccc2c(c1)cc(C(=O)O)n2C,inconclusive: -4.8%
14,Clc1ccc(-c2nnc3c4ccccc4nc(N4CCOCC4)n23)cc1Cl,inconclusive: -6.5%
15,C=CCn1c(N)c(C(=O)N2CCOCC2)sc1=S,inconclusive: 4.7%
16,COc1ccc(N(Cc2cc(=O)[nH]c3ccccc23)C(=O)c2ccco2)cc1,inconclusive: -0.5%
17,O=C1c2ccccc2C(=O)N1CCSc1ccccc1,inconclusive: -0.4%
18,COc1ccc(C(=O)Nc2nc(-c3ccc([N+](=O)[O-])cc3)c(-c3ccc(OC)cc3)s2)cc1,active: 37.8%
